According to patent US20160159774A1 (Celgene Avilomics Research, Inc., priority 2014, published 2016):
pEC50, pIC50: −log10 of the molar value.

Sequences of proteins named here, by UniProt entry; tags and fusion partners are left off. A change or cut given only in a name is not applied to a line headed by its entry.
UniProt Q06187: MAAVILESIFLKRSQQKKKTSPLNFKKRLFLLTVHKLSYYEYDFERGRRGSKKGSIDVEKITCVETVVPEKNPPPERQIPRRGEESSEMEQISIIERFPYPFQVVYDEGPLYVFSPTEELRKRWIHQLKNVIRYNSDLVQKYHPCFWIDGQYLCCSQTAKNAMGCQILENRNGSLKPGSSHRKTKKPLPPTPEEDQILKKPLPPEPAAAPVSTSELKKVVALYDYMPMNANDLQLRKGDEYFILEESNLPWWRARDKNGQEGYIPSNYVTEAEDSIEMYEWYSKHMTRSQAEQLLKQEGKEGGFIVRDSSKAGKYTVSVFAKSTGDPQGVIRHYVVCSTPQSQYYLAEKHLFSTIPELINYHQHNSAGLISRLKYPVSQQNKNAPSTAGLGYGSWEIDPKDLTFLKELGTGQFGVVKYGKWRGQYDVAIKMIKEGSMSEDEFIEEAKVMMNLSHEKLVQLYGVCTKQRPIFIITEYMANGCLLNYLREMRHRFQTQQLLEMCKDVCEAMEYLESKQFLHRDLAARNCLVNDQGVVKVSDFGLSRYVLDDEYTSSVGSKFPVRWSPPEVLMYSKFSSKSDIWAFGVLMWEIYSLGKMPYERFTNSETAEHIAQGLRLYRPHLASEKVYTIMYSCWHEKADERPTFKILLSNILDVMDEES

Assays:
[1] = molecular target: T1, activated BTK enzyme (Homo sapiens, UniProt Q06187); assay: Omnia assay for potency assessment against BTK; type: biochemical; settings: BTK inhibition assay; [BTK]=5 nM, [ATP]=40 μM, [Y5-Sox]=10 μM
T1 construct: purchased Life Technologies PV3363
Text: Omnia Assay Protocol for Potency Assessment Against BTK
The protocol below describes an assay to measure potency of compounds against the activated BTK enzyme. The mechanics of the assay platform are best described by the vendor (Life Technologies, Carlsbad, Calif.) on their website at the following URLs: www.lifetechnologies.com/us/en/home/life-science/drug-discovery/target-and-lead-identification-and-validation/kinasebiology/kinase-activity-assays/omnia-kinase-assays/omnia-kinase-principle.html and tools.lifetechnologies.com/content/sfs/manuals/omnia_kinase_assay_man.pdf
Briefly, 10× stocks of BTK (PV3363) from Life Technologies, 1.13×ATP (AS00lA) and Sox conjugated peptide substrates, Y5-Sox, (KZN305l) were prepared in 1× kinase reaction buffer consisting of 20 mM Tris, pH 7.5, 5 mM MgCl2, 1 mM EGTA, 5 mM (3-glycerophosphate, 5% glycerol (10× stock, KB002A) and 0.2 mM DTT (DS00lA). 5 μL of each enzyme were pre-incubated in a Corning (#3574) 384-well, white, non-binding surface microtiter plate (Corning, N.Y.) for 30 min. at room temperature with a 0.5 μL volume of 50% DMSO or serially diluted compounds prepared in 50% DMSO. Kinase reactions were started with the addition of […] of the ATP/Tyr-Sox peptide substrate Y5 mix and monitored every 71 seconds for 60 minutes at λex360/λem485 in a Synergy4 plate reader from BioTek (Winooski, Vt.). […]

[2] = molecular target: T2, BTK in Ramos human Burkitt lymphoma cells (Homo sapiens, UniProt Q06187); assay: BTK Ramos cellular assay (BTK occupancy); type: cell-based; settings: concentration producing 50% occupancy of BTK, 1 hour incubation with compound
T2 construct: Compounds of this invention were assayed in Ramos human Burkitt lymphoma cells; endogenous in cells; host or cells: Ramos human Burkitt lymphoma cells
Method: BTK activity in Ramos cells, in the presence of a compound of the invention, can be measured by 3 different methods: 1) inhibition of autophosphorylation of BTK; 2) inhibition of phosphorylation of the immediate BTK surrogate PLCγ2; and 3) BTK occupancy. […] In this instance, BTK occupancy was chosen and is described below.
Compounds of this invention were assayed in Ramos human Burkitt lymphoma cells. Ramos cells were grown in suspension in T175 flasks, spun down, resuspended to a concentration of 2×10^6 cells per mL in serum-free media and incubated for 1 hour. Compound was added to Ramos cells to a final concentration of 500, 166.7, 55.6, 18.5, 6.2, 2.1, and 0.7 nM. Ramos cells were incubated with compound for 1 hour, washed with PBS and lysed in 1004 of BioRad lysis Buffer. Cell lysates were incubated with a biotinylated covalent probe (compound 1-215 disclosed in U.S. published application number 2010/0029610, incorporated by reference in its entirety) at a final concentration of 1 μM in a PBS, 0.05% Tween-20, 1% BSA solution for 1 h at room temperature. […] The ELISA was developed with addition of tetramethyl benzidine (TMB) followed by Stop Solution and read at OD 450 nm. […] Uninhibited Btk detected from samples was normalized to μg total protein as determined by BCA protein analysis (Pierce Cat. 23225). […]

pIC50 [1]: > 8.00
pEC50 [2]: 7.00 to 8.00
Structure (SMILES): C=CC(=O)N1CCC[C@@H](Nc2nc(Nc3ccc4c(c3)CN(C3CC3)CCC4)ncc2F)C1 [Compound I-54, (R)-1-(3-(2-(2-Cyclopropyl-2,3,4,5-tetrahydro-1H-benzo[c]azepin-8-ylamino)-5-fluoropyrimidin-4-ylamino)piperidin-1-yl)prop-2-en-1-one]
